Measured values taken from article PMC6454061.

Protein sequences, listed by entry. Tags and fused reporters are not part of them. Lines headed by an entry give the natural chain unless they say otherwise; changes in a name come on top.
UniProt P15907: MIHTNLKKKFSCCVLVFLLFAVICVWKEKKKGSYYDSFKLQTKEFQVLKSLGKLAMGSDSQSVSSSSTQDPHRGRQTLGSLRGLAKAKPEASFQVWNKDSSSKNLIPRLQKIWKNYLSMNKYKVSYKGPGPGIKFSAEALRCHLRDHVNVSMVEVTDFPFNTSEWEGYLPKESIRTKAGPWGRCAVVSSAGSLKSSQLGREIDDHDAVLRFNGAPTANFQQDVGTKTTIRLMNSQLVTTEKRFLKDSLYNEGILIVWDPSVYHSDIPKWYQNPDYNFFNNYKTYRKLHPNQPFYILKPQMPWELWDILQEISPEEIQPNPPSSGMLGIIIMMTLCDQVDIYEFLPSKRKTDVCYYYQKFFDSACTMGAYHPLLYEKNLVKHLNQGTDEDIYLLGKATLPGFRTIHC

Biological target: T1, β1,4-galactosyltransferase B4GalT-I (UniProt P15291)
T1 sequence: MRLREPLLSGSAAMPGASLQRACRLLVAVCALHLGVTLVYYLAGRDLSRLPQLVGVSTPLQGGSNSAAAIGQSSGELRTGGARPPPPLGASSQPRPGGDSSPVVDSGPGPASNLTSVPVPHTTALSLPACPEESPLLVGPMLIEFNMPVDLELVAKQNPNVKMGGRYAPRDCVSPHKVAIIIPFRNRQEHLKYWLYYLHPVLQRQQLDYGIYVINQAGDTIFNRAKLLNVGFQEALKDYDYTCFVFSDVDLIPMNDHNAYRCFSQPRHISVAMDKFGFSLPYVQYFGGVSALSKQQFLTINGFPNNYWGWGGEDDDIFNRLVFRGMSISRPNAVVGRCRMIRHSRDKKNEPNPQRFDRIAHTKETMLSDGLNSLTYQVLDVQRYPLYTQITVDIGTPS
Assay: FRET or BRET; mVenus- and mCherry-tagged enzyme constructs co-transfected in COS-7 cells, fixed with 4% PFA, FRET quantified by high content imaging (Operetta); normoxic cells as the reference (100%); cells also compared after moderate hypoxia (5% O2, 4-24 h) or 3-10 mM DTT; mutants given as percent of wild type

binding: binds
Substance: ST6Gal-I cysteine mutant C24S (from UniProt P15907) (enzyme)

No constants are given. Whether binding was seen depends on the method and setting. In cells and extracts the contact can be indirect. Binding calls can cover weak binding; strength is not graded here.
